Results deposited as PubChem BioAssay AID1259425 (University of Nebraska Medical Center, 2018).
Here is an unselected part of about 14,000 deposited reagents. The record does not give: the time to read-out.

Aim: 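Find knockdowns that reproduce the gene expression pattern seen when KSR1 is lost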 (primary screen)
System: HCT116 human colon cancer cells
Reagents: siRNA pool against human genes, 50 nM siRNA
Read-out: 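After 50 nM siRNA pool, branched-DNA assay measures six marker transcripts per well, minus blank, normalised to the geometric mean of two housekeeping transcripts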
Scale: BNIP3L mRNA: higher = more BNIP3L transcript after knockdown; NDRG1 mRNA: higher = more NDRG1 transcript after knockdown; BNIP3 mRNA: higher = more BNIP3 transcript after knockdown; ALDOC mRNA: higher = more ALDOC transcript after knockdown; ACSL5 mRNA: higher = more ACSL5 transcript after knockdown

| Gene | BNIP3L mRNA, set 1 | NDRG1 mRNA, set 1 | BNIP3 mRNA, set 1 | ALDOC mRNA, set 1 | ACSL5 mRNA, set 1 |
| --- | --- | --- | --- | --- | --- |
| CYP3A7 (cytochrome P450 family 3 subfamily A member 7) | 0.091 | 0.192 | 0.284 | 0.0182 | 0.141 |
| SLC25A11 | 0.0474 | 0.186 | 0.341 | 0.101 | 0.268 |
| NFATC2IP (nuclear factor of activated T cells 2 interacting protein) | 0.218 | 0.655 | 0.393 | 0.0801 | 0.44 |
| MYOT (myotilin) | 0.222 | 0.189 | 0.376 | 0.0717 | 0.109 |
| ACE (angiotensin I converting enzyme) | 0.094 | 0.136 | 0.24 | 0.0275 | 0.116 |
| KLRB1 (killer cell lectin like receptor B1) | 0.0667 | 0.332 | 0.317 | 0.0219 | 0.12 |
| MPHOSPH9 (M-phase phosphoprotein 9) | 0.156 | 0.204 | 0.439 | 0.0336 | 0.124 |
| PRMT2 (protein arginine methyltransferase 2) | 0.0701 | 0.0848 | 0.215 | 0.0268 | 0.0916 |
| ARL6 (ARF like GTPase 6) | 0.219 | 0.115 | 0.231 | 0.101 | 0.7 |
| SNX22 (sorting nexin 22) | 0.166 | 1.25 | 0.352 | 0.0283 | 0.394 |
| EFHC2 (EF-hand domain containing 2) | 0.292 | 0.58 | 0.501 | 0.0973 | 0.272 |
| GATA4 (GATA binding protein 4) | 0.0798 | 0.333 | 0.394 | 0.0104 | 0.127 |
| RPH3AL (rabphilin 3A like (without C2 domains)) | 0.582 | 0.434 | 0.564 | 0.0365 | 0.295 |
| SEPTIN5 (septin 5) | 0.117 | 0.668 | 0.265 | 0.0155 | 0.215 |
| TG (thyroglobulin) | 0.149 | 0.0892 | 0.241 | 0.0269 | 0.0936 |
| POLR3C (RNA polymerase III subunit C) | 0.0595 | 0.269 | 0.229 | 0.00552 | 0.155 |
| TAS2R16 (taste 2 receptor member 16) | 0.125 | 0.147 | 0.279 | 0.0181 | 0.156 |
| HSPA1B (heat shock protein family A (Hsp70) member 1B) | 0.146 | 0.186 | 0.309 | 0.011 | 0.193 |
| GNL3L (G protein nucleolar 3 like) | 0.0833 | 0.226 | 0.276 | 0.0211 | 0.116 |
| N4BP1 (NEDD4 binding protein 1) | 0.105 | 0.161 | 0.459 | 0.0308 | 0.156 |
| NFKBIL1 (NFKB inhibitor like 1) | 0.146 | 0.363 | 0.325 | 0.0324 | 0.199 |
| OR10A3 (olfactory receptor family 10 subfamily A member 3) | 0.114 | 0.22 | 0.33 | 0.0247 | 0.181 |
| CRCT1 (cysteine rich C-terminal 1) | 0.177 | 0.324 | 0.378 | 0.0363 | 0.0918 |
| PIN1 (peptidylprolyl cis/trans isomerase, NIMA-interacting 1) | 0.109 | 0.243 | 0.311 | 0.0358 | 0.174 |
| COL8A2 (collagen type VIII alpha 2 chain) | 0.153 | 0.118 | 0.3 | 0.023 | 0.158 |
| HSPA4L (heat shock protein family A (Hsp70) member 4 like) | 0.154 | 0.145 | 0.438 | 0.0225 | 0.465 |
| PRKCD (protein kinase C delta) | 0.0849 | 0.447 | 0.419 | 0.000848 | 0.308 |
| NMB (neuromedin B) | 0.0916 | 0.213 | 0.364 | 0.0222 | 0.297 |
| CPD (carboxypeptidase D) | 0.0585 | 0.115 | 0.343 | 0.0662 | 0.3 |
| CASP2 (caspase 2) | 0.124 | 0.251 | 0.376 | 0.0233 | 0.098 |
| C9 (complement C9) | 0.0764 | 0.61 | 0.378 | 0.0268 | 0.497 |
| CCL11 (C-C motif chemokine ligand 11) | 0.113 | 0.349 | 0.38 | 0.0165 | 0.268 |
| C5 (complement C5) | 0.181 | 0.301 | 0.257 | 0.0424 | 0.167 |
| ATXN7L1 (ataxin 7 like 1) | 0.169 | 0.126 | 0.309 | 0.0927 | 0.202 |
| ASAP2 (ArfGAP with SH3 domain, ankyrin repeat and PH domain 2) | 0.087 | 0.248 | 0.227 | 0.00817 | 0.0755 |
| SLC14A1 | 0.0774 | 0.111 | 0.315 | 0.0151 | 0.122 |
| SSTR3 (somatostatin receptor 3) | 0.163 | 0.152 | 0.277 | 0.0107 | 0.103 |
| ASF1A (anti-silencing function 1A histone chaperone) | 0.0903 | 0.142 | 0.352 | 0.0422 | 0.224 |
| RPL29 (ribosomal protein L29) | 0.0587 | 0.053 | 0.286 | 0.0426 | 0.0517 |
| HTR3C (5-hydroxytryptamine receptor 3C) | 0.0689 | 0.15 | 0.216 | 0.0163 | 0.177 |
| IFT172 (intraflagellar transport 172) | 0.175 | 0.26 | 0.827 | 0.0346 | 0.13 |
| MAPKAP1 (MAPK associated protein 1) | 0.0748 | 0.126 | 0.207 | 0.023 | 0.137 |
| DIAPH3 (diaphanous related formin 3) | 0.0597 | 0.0722 | 0.308 | 0.0254 | 0.139 |
| CRIPT (CXXC repeat containing interactor of PDZ3 domain) | 0.0957 | 0.124 | 0.269 | 0.0227 | 0.0653 |
| CKAP2 (cytoskeleton associated protein 2) | 0.137 | 0.252 | 0.34 | 0.0211 | 0.15 |
| DHRS11 (dehydrogenase/reductase 11) | 0.0794 | 0.166 | 0.225 | 0.012 | 0.0725 |
| LRRC8E (leucine rich repeat containing 8 VRAC subunit E) | 0.128 | 0.258 | 0.416 | 0.0462 | 0.151 |
| TUBB1 (tubulin beta 1 class VI) | 0.0593 | 0.167 | 0.323 | 0.0143 | 0.21 |
| WASHC4 (WASH complex subunit 4) | 0.169 | 0.826 | 0.347 | 0.134 | 0.108 |
| SRM (spermidine synthase) | 0.104 | 0.284 | 0.163 | 0.0372 | 0.377 |
| PIK3AP1 (phosphoinositide-3-kinase adaptor protein 1) | 0.0593 | 0.11 | 0.209 | 0.0112 | 0.0927 |
| RYK (receptor like tyrosine kinase) | 0.0986 | 0.129 | 0.288 | 0.00985 | 0.265 |
| APTX (aprataxin) | 0.145 | 0.114 | 0.315 | 0.018 | 0.121 |
| PMPCB (peptidase, mitochondrial processing subunit beta) | 0.0959 | 0.228 | 0.316 | 0.0203 | 0.164 |
| CORO1A (coronin 1A) | 0.205 | 0.243 | 0.397 | 0.0692 | 0.15 |
| FEZF2 (FEZ family zinc finger 2) | 0.141 | 0.0662 | 0.154 | 0.0275 | 0.104 |
| RANBP3 (RAN binding protein 3) | 0.0794 | 0.148 | 0.278 | 0.0207 | 0.127 |
| FYTTD1 (forty-two-three domain containing 1) | 0.187 | 0.0904 | 0.256 | 0.0391 | 0.234 |
| ONECUT1 (one cut homeobox 1) | 0.109 | 0.595 | 0.255 | 0.014 | 0.14 |
| INTS13 (integrator complex subunit 13) | 0.0311 | 0.0334 | 0.234 | 0.0162 | 0.116 |
| OSGIN2 (oxidative stress induced growth inhibitor family member 2) | 0.0573 | 0.0806 | 0.268 | 0.0244 | 0.133 |
| NELFE (negative elongation factor complex member E) | 0.154 | 0.679 | 0.407 | 0.0757 | 0.377 |
| QNG1 (Q-nucleotide N-glycosylase 1) | 0.144 | 0.206 | 0.229 | 0.106 | 0.373 |

Part of the list above, set out differently:
{"Gene": "APTX (aprataxin)", "BNIP3L mRNA, set 1": 0.145, "NDRG1 mRNA, set 1": 0.114, "BNIP3 mRNA, set 1": 0.315, "ALDOC mRNA, set 1": 0.018, "ACSL5 mRNA, set 1": 0.121}
{"Gene": "PMPCB (peptidase, mitochondrial processing subunit beta)", "BNIP3L mRNA, set 1": 0.0959, "NDRG1 mRNA, set 1": 0.228, "BNIP3 mRNA, set 1": 0.316, "ALDOC mRNA, set 1": 0.0203, "ACSL5 mRNA, set 1": 0.164}
{"Gene": "CORO1A (coronin 1A)", "BNIP3L mRNA, set 1": 0.205, "NDRG1 mRNA, set 1": 0.243, "BNIP3 mRNA, set 1": 0.397, "ALDOC mRNA, set 1": 0.0692, "ACSL5 mRNA, set 1": 0.15}
{"Gene": "FEZF2 (FEZ family zinc finger 2)", "BNIP3L mRNA, set 1": 0.141, "NDRG1 mRNA, set 1": 0.0662, "BNIP3 mRNA, set 1": 0.154, "ALDOC mRNA, set 1": 0.0275, "ACSL5 mRNA, set 1": 0.104}
